Here are results for 4 molecules from PMC12376677.

By UniProt entry, the sequences of proteins in these tests, tags left out. Where a name states a change or a piece, a line headed by the entry shows the natural chain unless it says otherwise.
UniProt O75925: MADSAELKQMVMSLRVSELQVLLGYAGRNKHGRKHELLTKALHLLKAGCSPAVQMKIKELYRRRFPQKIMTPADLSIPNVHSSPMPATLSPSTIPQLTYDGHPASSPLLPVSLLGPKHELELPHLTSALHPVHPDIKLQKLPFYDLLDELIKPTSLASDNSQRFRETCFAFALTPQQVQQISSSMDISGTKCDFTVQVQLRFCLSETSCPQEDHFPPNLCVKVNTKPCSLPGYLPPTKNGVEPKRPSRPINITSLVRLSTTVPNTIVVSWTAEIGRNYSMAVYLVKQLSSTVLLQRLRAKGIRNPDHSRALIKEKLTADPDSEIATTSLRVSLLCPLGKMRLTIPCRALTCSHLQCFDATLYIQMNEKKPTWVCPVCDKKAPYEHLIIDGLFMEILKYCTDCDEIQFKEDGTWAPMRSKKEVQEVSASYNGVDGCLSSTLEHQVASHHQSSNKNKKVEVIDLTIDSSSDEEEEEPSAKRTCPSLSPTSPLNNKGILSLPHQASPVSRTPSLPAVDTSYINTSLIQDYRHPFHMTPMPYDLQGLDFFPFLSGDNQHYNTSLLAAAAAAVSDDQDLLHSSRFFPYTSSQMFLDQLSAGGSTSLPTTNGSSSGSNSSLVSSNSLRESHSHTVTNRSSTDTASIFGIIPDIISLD
UniProt P61956: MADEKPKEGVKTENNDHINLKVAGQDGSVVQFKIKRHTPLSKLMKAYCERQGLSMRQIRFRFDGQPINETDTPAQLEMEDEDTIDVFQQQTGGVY

T1: DHX36 (human (endogenous in SKOV3 or COV504 cells)) (UniProt Q9H2U1)
T1 sequence: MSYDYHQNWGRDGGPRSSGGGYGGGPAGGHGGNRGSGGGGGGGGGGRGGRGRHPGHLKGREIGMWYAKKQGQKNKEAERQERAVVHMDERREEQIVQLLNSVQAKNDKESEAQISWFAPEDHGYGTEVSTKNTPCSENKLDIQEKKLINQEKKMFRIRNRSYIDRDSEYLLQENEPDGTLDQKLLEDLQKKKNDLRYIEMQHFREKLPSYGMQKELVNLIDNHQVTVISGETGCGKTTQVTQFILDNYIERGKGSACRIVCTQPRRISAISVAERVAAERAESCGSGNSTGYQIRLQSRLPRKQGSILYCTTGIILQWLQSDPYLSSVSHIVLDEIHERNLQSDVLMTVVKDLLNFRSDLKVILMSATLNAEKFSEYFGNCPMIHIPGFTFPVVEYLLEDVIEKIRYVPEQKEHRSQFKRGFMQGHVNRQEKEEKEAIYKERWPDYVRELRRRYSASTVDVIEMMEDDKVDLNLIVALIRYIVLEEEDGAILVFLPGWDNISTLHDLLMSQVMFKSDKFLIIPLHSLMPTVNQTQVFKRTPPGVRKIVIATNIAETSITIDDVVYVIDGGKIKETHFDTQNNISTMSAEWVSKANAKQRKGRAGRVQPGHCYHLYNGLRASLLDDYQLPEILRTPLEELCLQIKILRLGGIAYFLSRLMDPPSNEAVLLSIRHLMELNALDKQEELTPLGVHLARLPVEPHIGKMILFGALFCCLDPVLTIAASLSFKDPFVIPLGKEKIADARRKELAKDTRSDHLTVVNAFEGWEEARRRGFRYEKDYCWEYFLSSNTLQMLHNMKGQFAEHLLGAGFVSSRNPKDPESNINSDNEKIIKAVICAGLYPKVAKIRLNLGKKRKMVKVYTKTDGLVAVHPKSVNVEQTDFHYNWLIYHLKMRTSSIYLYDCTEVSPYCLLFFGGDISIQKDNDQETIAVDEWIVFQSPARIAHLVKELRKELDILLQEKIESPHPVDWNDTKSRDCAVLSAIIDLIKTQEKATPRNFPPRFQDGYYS

B1: SAE1 (protein, UniProt Q9UBE0 1-346)
chain: MVEKEEAGGGISEEEAAQYDRQIRLWGLEAQKRLRASRVLLVGLKGLGAEIAKNLILAGVKGLTMLDHEQVTPEDPGAQFLIRTGSVGRNRAEASLERAQNLNPMVDVKVDTEDIEKKPESFFTQFDAVCLTCCSRDVIVKVDQICHKNSIKFFTGDVFGYHGYTFANLGEHEFVEEKTKVAKVSQGVEDGPDTKRAKLDSSETTMVKKKVVFCPVKEALEVDWSSEKAKAALKRTTSDYFLLQVLLKFRTDKGRDPSSDTYEEDSELLLQIRNDVLDSLGISPDLLPEDFVRYCFSEMAPVCAVVGGILAQEIVKALSQRDPPHNNFFFFDGMKGNGIVECLGPK
B2: UBA2 (protein, UniProt Q9UBT2 1-640)
chain: MALSRGLPRELAEAVAGGRVLVVGAGGIGCELLKNLVLTGFSHIDLIDLDTIDVSNLNRQFLFQKKHVGRSKAQVAKESVLQFYPKANIVAYHDSIMNPDYNVEFFRQFILVMNALDNRAARNHVNRMCLAADVPLIESGTAGYLGQVTTIKKGVTECYECHPKPTQRTFPGCTIRNTPSEPIHCIVWAKYLFNQLFGEEDADQEVSPDRADPEAAWEPTEAEARARASNEDGDIKRISTKEWAKSTGYDPVKLFTKLFKDDIRYLLTMDKLWRKRKPPVPLDWAEVQSQGEETNASDQQNEPQLGLKDQQVLDVKSYARLFSKSIETLRVHLAEKGDGAELIWDKDDPSAMDFVTSAANLRMHIFSMNMKSRFDIKSMAGNIIPAIATTNAVIAGLIVLEGLKILSGKIDQCRTIFLNKQPNPRKKLLVPCALDPPNPNCYVCASKPEVTVRLNVHKVTVLTLQDKIVKEKFAMVAPDVQIEDGKGTILISSEEGETEANNHKKLSEFGIRNGSRLQADDFLQDYTLLINILHSEDLGKDVEFEVVGDAPEKVGPKQAEDAAKSITNGSDDGAQPSTSTAQEQDDVLIVDSDEEDSSNNADVSEEERSRKRKLDEKENLSAKRSRIEQKEELDDVIALD

No constants are given. Whether binding was seen depends on the method and setting. Binding seen in cells or lysates may run through a third protein. These calls come from enrichment with a bait or labelling near it, and not all partners need be listed.

This test concerns the target T1, DHX36 (human (endogenous in SKOV3 or COV504 cells)). The experiment in a line: affinity purification with mass spectrometry; co-IP with anti-DHX36 antibody from cell lysate followed by MS.
Take PIAS1 (from UniProt O75925 1-651): the binding result is listed as “binds”.

For SUMO2 (from UniProt P61956), the binding result is “binds”.

As to B1, the binding entry is reported as “binds”.

Take B2: the binding result is listed as “binds”.
